{
  "sequences": {"note": "By UniProt entry, the sequences of proteins in these tests, tags left out.", "UniProt P90916": "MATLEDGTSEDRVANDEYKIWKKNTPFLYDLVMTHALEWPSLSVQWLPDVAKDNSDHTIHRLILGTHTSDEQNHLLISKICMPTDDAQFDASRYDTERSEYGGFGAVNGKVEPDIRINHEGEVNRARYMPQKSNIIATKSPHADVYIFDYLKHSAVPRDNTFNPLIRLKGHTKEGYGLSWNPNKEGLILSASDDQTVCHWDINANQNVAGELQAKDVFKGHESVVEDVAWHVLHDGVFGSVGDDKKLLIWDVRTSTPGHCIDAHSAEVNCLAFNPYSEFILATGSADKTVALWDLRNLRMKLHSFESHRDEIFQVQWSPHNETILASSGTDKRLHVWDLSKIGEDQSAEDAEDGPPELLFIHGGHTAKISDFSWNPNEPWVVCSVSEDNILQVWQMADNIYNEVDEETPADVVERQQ", "UniProt G5EBZ4": "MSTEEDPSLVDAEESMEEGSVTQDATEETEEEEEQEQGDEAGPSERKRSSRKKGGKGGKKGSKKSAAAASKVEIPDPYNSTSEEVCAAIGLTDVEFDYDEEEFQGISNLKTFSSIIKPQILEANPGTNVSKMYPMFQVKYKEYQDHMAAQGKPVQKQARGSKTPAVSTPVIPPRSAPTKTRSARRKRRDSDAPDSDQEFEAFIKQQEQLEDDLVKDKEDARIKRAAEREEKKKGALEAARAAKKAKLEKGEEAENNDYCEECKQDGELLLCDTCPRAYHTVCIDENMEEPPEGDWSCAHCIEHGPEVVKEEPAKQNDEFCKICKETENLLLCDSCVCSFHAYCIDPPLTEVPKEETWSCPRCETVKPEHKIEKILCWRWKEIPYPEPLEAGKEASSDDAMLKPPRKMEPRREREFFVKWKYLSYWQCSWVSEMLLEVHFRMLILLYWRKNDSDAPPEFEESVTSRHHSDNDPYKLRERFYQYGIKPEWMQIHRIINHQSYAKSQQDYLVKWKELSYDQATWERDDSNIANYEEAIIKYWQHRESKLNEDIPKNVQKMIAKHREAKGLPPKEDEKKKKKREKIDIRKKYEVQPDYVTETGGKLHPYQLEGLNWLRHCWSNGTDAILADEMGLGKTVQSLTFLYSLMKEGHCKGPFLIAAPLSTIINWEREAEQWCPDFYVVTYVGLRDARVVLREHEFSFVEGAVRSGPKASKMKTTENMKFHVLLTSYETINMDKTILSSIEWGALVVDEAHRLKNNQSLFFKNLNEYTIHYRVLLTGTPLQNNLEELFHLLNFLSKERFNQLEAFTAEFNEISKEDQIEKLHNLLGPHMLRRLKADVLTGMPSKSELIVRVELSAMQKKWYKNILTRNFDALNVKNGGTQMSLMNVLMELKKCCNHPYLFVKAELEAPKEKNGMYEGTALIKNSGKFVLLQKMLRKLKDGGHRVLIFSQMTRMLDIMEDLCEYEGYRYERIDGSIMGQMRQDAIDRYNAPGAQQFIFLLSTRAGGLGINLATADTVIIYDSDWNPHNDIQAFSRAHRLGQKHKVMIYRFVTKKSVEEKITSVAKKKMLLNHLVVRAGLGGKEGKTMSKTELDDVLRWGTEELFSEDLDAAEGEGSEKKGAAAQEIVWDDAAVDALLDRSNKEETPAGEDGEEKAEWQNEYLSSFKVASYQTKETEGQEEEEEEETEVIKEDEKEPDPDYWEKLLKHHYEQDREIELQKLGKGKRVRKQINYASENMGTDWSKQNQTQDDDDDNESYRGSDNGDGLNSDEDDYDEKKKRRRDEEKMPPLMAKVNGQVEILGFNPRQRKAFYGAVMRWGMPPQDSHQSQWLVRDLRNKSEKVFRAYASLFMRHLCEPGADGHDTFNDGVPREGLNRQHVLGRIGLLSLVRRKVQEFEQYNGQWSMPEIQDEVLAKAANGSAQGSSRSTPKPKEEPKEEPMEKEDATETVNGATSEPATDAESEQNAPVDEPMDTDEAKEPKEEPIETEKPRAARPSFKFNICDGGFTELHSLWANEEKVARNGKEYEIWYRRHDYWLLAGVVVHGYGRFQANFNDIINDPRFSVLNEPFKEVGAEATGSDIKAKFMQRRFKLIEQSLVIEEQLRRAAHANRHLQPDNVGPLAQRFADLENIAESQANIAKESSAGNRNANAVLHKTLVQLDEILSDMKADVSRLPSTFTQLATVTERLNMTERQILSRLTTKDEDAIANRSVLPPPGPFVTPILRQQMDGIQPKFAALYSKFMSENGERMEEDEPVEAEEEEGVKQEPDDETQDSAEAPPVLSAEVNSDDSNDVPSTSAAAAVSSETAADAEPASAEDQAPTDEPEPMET", "UniProt O17695": "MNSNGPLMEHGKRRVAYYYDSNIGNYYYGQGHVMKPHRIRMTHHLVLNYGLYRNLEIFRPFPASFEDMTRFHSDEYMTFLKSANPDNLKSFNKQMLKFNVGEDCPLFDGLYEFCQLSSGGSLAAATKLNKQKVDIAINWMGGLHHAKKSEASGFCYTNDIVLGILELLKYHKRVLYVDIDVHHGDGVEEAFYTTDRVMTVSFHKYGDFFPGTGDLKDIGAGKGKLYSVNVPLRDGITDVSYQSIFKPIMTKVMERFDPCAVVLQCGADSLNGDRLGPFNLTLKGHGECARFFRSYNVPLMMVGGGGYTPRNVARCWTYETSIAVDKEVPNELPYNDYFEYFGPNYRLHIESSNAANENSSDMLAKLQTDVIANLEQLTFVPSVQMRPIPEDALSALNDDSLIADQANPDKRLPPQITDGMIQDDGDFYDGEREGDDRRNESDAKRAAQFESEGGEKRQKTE", "UniProt Q22516": "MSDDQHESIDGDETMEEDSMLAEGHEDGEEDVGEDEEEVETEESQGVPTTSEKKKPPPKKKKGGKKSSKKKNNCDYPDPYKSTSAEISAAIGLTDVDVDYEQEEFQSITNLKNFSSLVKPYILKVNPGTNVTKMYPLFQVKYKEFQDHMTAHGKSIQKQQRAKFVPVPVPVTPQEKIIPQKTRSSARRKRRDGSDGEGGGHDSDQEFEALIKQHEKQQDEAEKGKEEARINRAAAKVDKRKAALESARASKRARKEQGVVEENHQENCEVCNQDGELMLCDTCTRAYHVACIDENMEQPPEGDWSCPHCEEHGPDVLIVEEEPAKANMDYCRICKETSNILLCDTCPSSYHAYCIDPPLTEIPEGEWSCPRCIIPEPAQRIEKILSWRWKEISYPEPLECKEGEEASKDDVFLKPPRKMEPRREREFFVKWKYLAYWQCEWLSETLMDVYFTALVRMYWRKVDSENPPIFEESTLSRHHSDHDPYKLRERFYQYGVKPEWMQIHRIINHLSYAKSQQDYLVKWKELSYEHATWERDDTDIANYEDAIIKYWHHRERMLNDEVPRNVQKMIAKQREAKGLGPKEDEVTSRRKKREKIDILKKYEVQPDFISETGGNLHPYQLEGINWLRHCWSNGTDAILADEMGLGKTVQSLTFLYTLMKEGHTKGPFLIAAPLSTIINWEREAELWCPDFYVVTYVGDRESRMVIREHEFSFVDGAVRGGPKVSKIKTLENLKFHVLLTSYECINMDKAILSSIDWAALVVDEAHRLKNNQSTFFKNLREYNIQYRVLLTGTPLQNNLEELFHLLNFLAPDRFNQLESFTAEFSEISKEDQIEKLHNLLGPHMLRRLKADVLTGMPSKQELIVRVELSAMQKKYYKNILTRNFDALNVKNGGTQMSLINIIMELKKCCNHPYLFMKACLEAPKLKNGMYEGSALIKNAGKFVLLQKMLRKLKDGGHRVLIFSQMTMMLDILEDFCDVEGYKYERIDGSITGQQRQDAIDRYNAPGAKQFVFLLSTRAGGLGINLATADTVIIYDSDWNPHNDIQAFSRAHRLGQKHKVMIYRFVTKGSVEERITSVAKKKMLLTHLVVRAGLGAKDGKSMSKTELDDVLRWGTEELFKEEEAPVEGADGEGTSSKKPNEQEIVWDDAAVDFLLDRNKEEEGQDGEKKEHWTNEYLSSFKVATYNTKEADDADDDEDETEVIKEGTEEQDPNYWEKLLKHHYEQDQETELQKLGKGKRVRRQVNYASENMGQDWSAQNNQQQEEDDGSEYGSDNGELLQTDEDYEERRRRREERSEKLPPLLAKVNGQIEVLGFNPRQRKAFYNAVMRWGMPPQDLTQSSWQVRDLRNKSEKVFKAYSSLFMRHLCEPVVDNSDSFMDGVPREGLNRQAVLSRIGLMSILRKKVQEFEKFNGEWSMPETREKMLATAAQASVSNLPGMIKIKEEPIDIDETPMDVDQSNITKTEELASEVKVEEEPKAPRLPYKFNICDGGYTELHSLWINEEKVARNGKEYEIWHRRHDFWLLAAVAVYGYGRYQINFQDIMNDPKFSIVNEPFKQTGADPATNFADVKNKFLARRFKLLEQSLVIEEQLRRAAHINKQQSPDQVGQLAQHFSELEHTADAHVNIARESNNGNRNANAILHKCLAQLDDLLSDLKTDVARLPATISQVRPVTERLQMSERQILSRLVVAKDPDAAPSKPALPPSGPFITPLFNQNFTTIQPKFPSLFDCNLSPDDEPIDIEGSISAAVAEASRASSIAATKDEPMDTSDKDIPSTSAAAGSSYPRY"},
  "source": "paper PMC2965115",
  "assay_in_all_cases": "co-IP; approximatively 1 mg of protein extract from mixed-stage worms with 1 µg of antibodies per reaction; anti-AFP mAb 3E6 for GFP-tagged proteins; immunoprecipitates analysed by Western blot",
  "key": {"LIN-53::GFP (C. elegans)": {"target": "LIN-53::GFP (C. elegans) (UniProt P90916)"}, "[1]": {"target": "LET-418 (C. elegans (endogenous in mixed-stage worms)) (UniProt G5EBZ4)"}, "[2]": {"target": "HDA-1 (C. elegans (endogenous in mixed-stage worms)) (UniProt O17695)"}, "[3]": {"target": "T1, MEP-1 (C. elegans (endogenous in mixed-stage worms)) (UniProt Q21502)", "T1 sequence": "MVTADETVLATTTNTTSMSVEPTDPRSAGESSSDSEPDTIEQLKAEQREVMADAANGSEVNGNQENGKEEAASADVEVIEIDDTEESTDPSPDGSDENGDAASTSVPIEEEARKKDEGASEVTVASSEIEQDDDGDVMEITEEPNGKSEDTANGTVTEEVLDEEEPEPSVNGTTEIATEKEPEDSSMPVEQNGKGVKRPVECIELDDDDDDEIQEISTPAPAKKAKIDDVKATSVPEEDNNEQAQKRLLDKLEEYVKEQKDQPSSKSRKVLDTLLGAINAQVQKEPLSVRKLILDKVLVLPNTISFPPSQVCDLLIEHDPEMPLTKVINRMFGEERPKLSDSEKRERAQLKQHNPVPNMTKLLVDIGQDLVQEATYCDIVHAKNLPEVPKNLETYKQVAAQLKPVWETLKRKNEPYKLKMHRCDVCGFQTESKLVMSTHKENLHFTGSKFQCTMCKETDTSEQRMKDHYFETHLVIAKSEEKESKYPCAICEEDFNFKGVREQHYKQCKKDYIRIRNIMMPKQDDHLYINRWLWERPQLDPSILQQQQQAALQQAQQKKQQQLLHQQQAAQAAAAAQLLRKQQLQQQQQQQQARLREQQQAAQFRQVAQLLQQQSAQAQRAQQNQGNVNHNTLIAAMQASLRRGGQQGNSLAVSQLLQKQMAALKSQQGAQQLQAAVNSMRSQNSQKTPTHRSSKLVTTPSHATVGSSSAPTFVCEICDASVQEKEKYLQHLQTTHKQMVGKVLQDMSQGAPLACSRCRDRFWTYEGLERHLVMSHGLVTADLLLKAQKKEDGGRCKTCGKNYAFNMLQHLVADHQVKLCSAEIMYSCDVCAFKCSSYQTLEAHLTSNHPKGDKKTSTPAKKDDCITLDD"}, "EGL-27::GFP (C. elegans)": {"target": "T2, EGL-27::GFP (C. elegans) (UniProt Q09228)", "T2 sequence": "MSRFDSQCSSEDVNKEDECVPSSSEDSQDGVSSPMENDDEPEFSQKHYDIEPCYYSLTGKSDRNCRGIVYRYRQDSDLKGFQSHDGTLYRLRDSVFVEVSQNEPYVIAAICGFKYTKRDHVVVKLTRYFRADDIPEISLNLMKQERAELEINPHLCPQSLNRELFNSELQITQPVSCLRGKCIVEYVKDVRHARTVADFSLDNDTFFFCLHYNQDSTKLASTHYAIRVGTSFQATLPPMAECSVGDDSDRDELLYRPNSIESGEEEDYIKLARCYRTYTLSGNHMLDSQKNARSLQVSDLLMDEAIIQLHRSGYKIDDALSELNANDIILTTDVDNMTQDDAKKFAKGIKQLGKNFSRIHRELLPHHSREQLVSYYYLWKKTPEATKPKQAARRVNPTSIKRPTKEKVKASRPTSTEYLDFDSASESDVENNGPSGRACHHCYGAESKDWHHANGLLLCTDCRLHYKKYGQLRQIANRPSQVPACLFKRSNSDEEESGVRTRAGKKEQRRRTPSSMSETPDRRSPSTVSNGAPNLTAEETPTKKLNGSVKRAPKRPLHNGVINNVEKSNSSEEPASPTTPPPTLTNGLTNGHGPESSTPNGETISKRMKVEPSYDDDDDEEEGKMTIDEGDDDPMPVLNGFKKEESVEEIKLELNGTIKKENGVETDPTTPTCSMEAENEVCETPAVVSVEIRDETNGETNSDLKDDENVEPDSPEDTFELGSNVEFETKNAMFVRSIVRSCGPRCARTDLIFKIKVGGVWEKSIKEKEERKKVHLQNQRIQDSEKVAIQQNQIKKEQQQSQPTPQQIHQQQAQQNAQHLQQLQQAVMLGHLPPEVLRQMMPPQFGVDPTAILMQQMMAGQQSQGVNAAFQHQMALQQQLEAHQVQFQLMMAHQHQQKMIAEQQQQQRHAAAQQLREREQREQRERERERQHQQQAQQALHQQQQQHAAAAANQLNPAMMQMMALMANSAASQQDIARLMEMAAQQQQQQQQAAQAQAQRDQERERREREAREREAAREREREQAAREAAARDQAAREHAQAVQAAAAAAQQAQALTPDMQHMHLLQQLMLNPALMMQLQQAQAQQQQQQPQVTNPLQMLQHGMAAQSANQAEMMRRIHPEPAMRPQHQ"}},
  "note": "No constants are given. Whether binding was seen depends on the method and setting. Binding seen in cells or lysates may run through a third protein. Some entries that bind do so weakly or less than the wild type. For part of these data: Where a sequence is shown, tags or fusion partners need not be part of it.",
  "data": [
    {"substance": "CHD-3 (from UniProt Q22516 1-1787)", "values": [
      {"measurement": "binding", "setting": "LIN-53::GFP (C. elegans)", "value": "binds"},
      {"measurement": "binding", "setting": "[1]", "value": "no binding"},
      {"measurement": "binding", "setting": "[2]", "value": "binds"},
      {"measurement": "binding", "setting": "[3]", "value": "no binding"}
    ]},
    {"substance": "HDA-1 (from UniProt O17695 1-461)", "values": [
      {"measurement": "binding", "setting": "LIN-53::GFP (C. elegans)", "value": "binds"},
      {"measurement": "binding", "setting": "[1]", "value": "binds"},
      {"measurement": "binding", "setting": "[3]", "value": "binds"},
      {"measurement": "binding", "setting": "EGL-27::GFP (C. elegans)", "value": "no binding"}
    ]},
    {"substance": "LET-418 (from UniProt G5EBZ4 1-1829)", "values": [
      {"measurement": "binding", "setting": "LIN-53::GFP (C. elegans)", "value": "binds"},
      {"measurement": "binding", "setting": "[3]", "value": "binds"},
      {"measurement": "binding", "setting": "EGL-27::GFP (C. elegans)", "value": "no binding"}
    ]},
    {"substance": "LIN-53 (from UniProt P90916 1-417)", "values": [
      {"measurement": "binding", "setting": "[1]", "value": "binds"}
    ]}
  ]
}
